In the supplement of paper PMC8728848:
Some of the results follow.

Tests used:
Assay in all cases: glycan array binding signal (z-score within array); higher = stronger binding
Conditions in all cases: glycan notation: IUPAC condensed, linker removed
[1] = biological target: Gal(b1-4)GlcNAc(b1-2)[Gal(b1-4)GlcNAc(b1-6)]Man(a1-6)[GlcNAc(b1-4)][Gal(b1-4)GlcNAc(b1-2)Man(a1-3)]Man(b1-4)GlcNAc(b1-4)GlcNAc
How it was run: (§1)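 The binding signal is a Z-score computed within each array and averaged over linkers. Arrays of the same protein sequence at different concentrations or buffers were also averaged together. Data originate from 3228 arrays in the Consortium for Functional Glycomics database, kept only where the protein sequence was available.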

[2] = biological target: Gal(b1-4)GlcNAc(b1-2)[Gal(b1-4)GlcNAc(b1-6)]Man(a1-6)[GlcNAc(b1-4)][Gal(b1-4)GlcNAc(b1-2)[Gal(b1-4)GlcNAc(b1-4)]Man(a1-3)]Man(b1-4)GlcNAc(b1-4)[Fuc(a1-6)]GlcNAc
How it was run: as §1

[3] = biological target: Gal(b1-4)GlcNAc(b1-3)Gal(b1-3)GalNAc
How it was run: as §1

[4] = biological target: Gal(b1-4)GlcNAc(b1-3)Gal(b1-3)GlcNAc
How it was run: as §1

[5] = biological target: Gal(b1-4)GlcNAc(b1-3)Gal(b1-4)Glc
How it was run: as §1

[6] = biological target: Gal(b1-4)GlcNAc(b1-3)Gal(b1-4)GlcNAc
How it was run: as §1

[7] = biological target: Gal(b1-4)GlcNAc(b1-3)Gal(b1-4)GlcNAc(b1-2)Man(a1-3)[Gal(b1-4)GlcNAc(b1-3)Gal(b1-4)GlcNAc(b1-2)Man(a1-6)]Man(b1-4)GlcNAc(b1-4)GlcNAc
How it was run: as §1

[8] = biological target: Gal(b1-4)GlcNAc(b1-3)Gal(b1-4)GlcNAc(b1-2)Man(a1-3)[Gal(b1-4)GlcNAc(b1-3)Gal(b1-4)GlcNAc(b1-2)Man(a1-6)]Man(b1-4)GlcNAc(b1-4)[Fuc(a1-6)]GlcNAc
How it was run: as §1

[9] = biological target: Gal(b1-4)GlcNAc(b1-3)Gal(b1-4)GlcNAc(b1-2)[Gal(b1-4)GlcNAc(b1-3)Gal(b1-4)GlcNAc(b1-6)]Man(a1-6)[Gal(b1-4)GlcNAc(b1-3)Gal(b1-4)GlcNAc(b1-2)Man(a1-3)]Man(b1-4)GlcNAc(b1-4)GlcNAc
How it was run: as §1

[10] = biological target: Gal(b1-4)GlcNAc(b1-3)Gal(b1-4)GlcNAc(b1-2)[Gal(b1-4)GlcNAc(b1-3)Gal(b1-4)GlcNAc(b1-6)]Man(a1-6)[Gal(b1-4)GlcNAc(b1-3)Gal(b1-4)GlcNAc(b1-2)Man(a1-3)]Man(b1-4)GlcNAc(b1-4)[Fuc(a1-6)]GlcNAc
How it was run: as §1

[11] = biological target: Gal(b1-4)GlcNAc(b1-3)Gal(b1-4)GlcNAc(b1-3)Gal(b1-4)GlcNAc
How it was run: as §1

[12] = biological target: Gal(b1-4)GlcNAc(b1-3)Gal(b1-4)GlcNAc(b1-3)Gal(b1-4)GlcNAc(b1-2)Man(a1-3)[Gal(b1-4)GlcNAc(b1-3)Gal(b1-4)GlcNAc(b1-3)Gal(b1-4)GlcNAc(b1-2)Man(a1-6)]Man(b1-4)GlcNAc(b1-4)GlcNAc
How it was run: as §1

[13] = biological target: Gal(b1-4)GlcNAc(b1-3)Gal(b1-4)GlcNAc(b1-3)Gal(b1-4)GlcNAc(b1-2)Man(a1-3)[Gal(b1-4)GlcNAc(b1-3)Gal(b1-4)GlcNAc(b1-3)Gal(b1-4)GlcNAc(b1-2)Man(a1-6)]Man(b1-4)GlcNAc(b1-4)[Fuc(a1-6)]GlcNAc
How it was run: as §1

[14] = biological target: Gal(b1-4)GlcNAc(b1-3)Gal(b1-4)GlcNAc(b1-3)Gal(b1-4)GlcNAc(b1-2)[Gal(b1-4)GlcNAc(b1-3)Gal(b1-4)GlcNAc(b1-3)Gal(b1-4)GlcNAc(b1-6)]Man(a1-6)[Gal(b1-4)GlcNAc(b1-3)Gal(b1-4)GlcNAc(b1-3)Gal(b1-4)GlcNAc(b1-2)Man(a1-3)]Man(b1-4)GlcNAc(b1-4)[Fuc(a1-6)]GlcNAc
How it was run: as §1

[15] = biological target: Gal(b1-4)GlcNAc(b1-3)Gal(b1-4)GlcNAc(b1-3)Gal(b1-4)GlcNAc(b1-3)Gal(b1-4)GlcNAc(b1-2)Man(a1-3)[Gal(b1-4)GlcNAc(b1-3)Gal(b1-4)GlcNAc(b1-3)Gal(b1-4)GlcNAc(b1-3)Gal(b1-4)GlcNAc(b1-2)Man(a1-6)]Man(b1-4)GlcNAc(b1-4)GlcNAc
How it was run: as §1

[16] = biological target: Gal(b1-4)GlcNAc(b1-3)Gal(b1-4)GlcNAc(b1-3)Gal(b1-4)GlcNAc(b1-3)Gal(b1-4)GlcNAc(b1-2)Man(a1-3)[Gal(b1-4)GlcNAc(b1-3)Gal(b1-4)GlcNAc(b1-3)Gal(b1-4)GlcNAc(b1-3)Gal(b1-4)GlcNAc(b1-2)Man(a1-6)]Man(b1-4)GlcNAc(b1-4)[Fuc(a1-6)]GlcNAc
How it was run: as §1

[17] = biological target: Gal(b1-4)GlcNAc(b1-3)Gal(b1-4)GlcNAc(b1-3)Gal(b1-4)GlcNAc(b1-3)Gal(b1-4)GlcNAc(b1-2)[Gal(b1-4)GlcNAc(b1-3)Gal(b1-4)GlcNAc(b1-3)Gal(b1-4)GlcNAc(b1-3)Gal(b1-4)GlcNAc(b1-6)]Man(a1-6)[Gal(b1-4)GlcNAc(b1-3)Gal(b1-4)GlcNAc(b1-3)Gal(b1-4)GlcNAc(b1-3)Gal(b1-4)GlcNAc(b1-2)Man(a1-3)]Man(b1-4)GlcNAc(b1-4)[Fuc(a1-6)]GlcNAc
How it was run: as §1

[18] = biological target: Gal(b1-4)GlcNAc(b1-3)Gal(b1-4)GlcNAc(b1-3)Gal(b1-4)GlcNAc(b1-3)Gal(b1-4)GlcNAc(b1-3)Gal(b1-4)GlcNAc(b1-2)Man(a1-3)[Gal(b1-4)GlcNAc(b1-3)Gal(b1-4)GlcNAc(b1-3)Gal(b1-4)GlcNAc(b1-3)Gal(b1-4)GlcNAc(b1-3)Gal(b1-4)GlcNAc(b1-2)Man(a1-6)]Man(b1-4)GlcNAc(b1-4)GlcNAc
How it was run: as §1

[19] = biological target: Gal(b1-4)GlcNAc(b1-3)Gal(b1-4)GlcNAc(b1-3)Gal(b1-4)GlcNAc(b1-3)Gal(b1-4)GlcNAc(b1-3)Gal(b1-4)GlcNAc(b1-2)Man(a1-3)[Gal(b1-4)GlcNAc(b1-3)Gal(b1-4)GlcNAc(b1-3)Gal(b1-4)GlcNAc(b1-3)Gal(b1-4)GlcNAc(b1-3)Gal(b1-4)GlcNAc(b1-2)Man(a1-6)]Man(b1-4)GlcNAc(b1-4)[Fuc(a1-6)]GlcNAc
How it was run: as §1

[20] = biological target: Gal(b1-4)GlcNAc(b1-3)Gal(b1-4)GlcNAc(b1-3)Gal(b1-4)GlcNAc(b1-3)Gal(b1-4)GlcNAc(b1-3)Gal(b1-4)GlcNAc(b1-2)[Gal(b1-4)GlcNAc(b1-3)Gal(b1-4)GlcNAc(b1-3)Gal(b1-4)GlcNAc(b1-3)Gal(b1-4)GlcNAc(b1-3)Gal(b1-4)GlcNAc(b1-6)]Man(a1-6)[Gal(b1-4)GlcNAc(b1-3)Gal(b1-4)GlcNAc(b1-3)Gal(b1-4)GlcNAc(b1-3)Gal(b1-4)GlcNAc(b1-3)Gal(b1-4)GlcNAc(b1-2)Man(a1-3)]Man(b1-4)GlcNAc(b1-4)[Fuc(a1-6)]GlcNAc
How it was run: as §1

[21] = biological target: Gal(b1-4)GlcNAc(b1-3)Gal(b1-4)GlcNAc(b1-3)Gal(b1-4)GlcNAc(b1-3)Gal(b1-4)GlcNAc(b1-3)Gal(b1-4)GlcNAc(b1-3)Gal(b1-4)GlcNAc(b1-2)Man(a1-3)[Gal(b1-4)GlcNAc(b1-3)Gal(b1-4)GlcNAc(b1-3)Gal(b1-4)GlcNAc(b1-3)Gal(b1-4)GlcNAc(b1-3)Gal(b1-4)GlcNAc(b1-3)Gal(b1-4)GlcNAc(b1-2)Man(a1-6)]Man(b1-4)GlcNAc(b1-4)GlcNAc
How it was run: as §1

[22] = biological target: Gal(b1-4)GlcNAc(b1-3)Gal(b1-4)GlcNAc(b1-3)GalNAc
How it was run: as §1

[23] = biological target: Gal(b1-4)GlcNAc(b1-3)Gal(b1-4)GlcNAc(b1-3)[Gal(b1-4)GlcNAc(b1-3)Gal(b1-4)GlcNAc(b1-6)]GalNAc
How it was run: as §1

B1: Pwp7 (Candida glabrata) (protein)
chain: MGSSHHHHHHSSGLVPRGSHMASKNPVDFPNLCQYPNLDGAVAGFDTEIYNADPSILINFSLWPILQFPKEWHKTIGRAITTQTNFKLPASDTTLFGVSIPTQNILIEFRGYFIPPKSGTYTFALYLTDDGSAMFLGNDAAFPCGNITSWSNPTNDQVSVSDYDPKKKTLTVYMVAGVAYPLRIAYYNREKGGSLTASFVDPDGLTHSDWNGYIWTLPSCDNCKYS
- glycan array binding signal (z-score) [1]: 0.527
- glycan array binding signal (z-score) [2]: -0.254
- glycan array binding signal (z-score) [3]: 0.1
- glycan array binding signal (z-score) [4]: 0.314
- glycan array binding signal (z-score) [5]: 0.203
- glycan array binding signal (z-score) [6]: 0.476
- glycan array binding signal (z-score) [7]: 2.11
- glycan array binding signal (z-score) [8]: 1.17
- glycan array binding signal (z-score) [9]: 4.75
- glycan array binding signal (z-score) [10]: 0.752
- glycan array binding signal (z-score) [11]: -0.205
- glycan array binding signal (z-score) [12]: 0.929
- glycan array binding signal (z-score) [13]: 0.805
- glycan array binding signal (z-score) [14]: 0.468
- glycan array binding signal (z-score) [15]: 1.16
- glycan array binding signal (z-score) [16]: 1.19
- glycan array binding signal (z-score) [17]: 0.261
- glycan array binding signal (z-score) [18]: 1.68
- glycan array binding signal (z-score) [19]: 2.19
- glycan array binding signal (z-score) [20]: 0.783
- glycan array binding signal (z-score) [21]: 1.86
- glycan array binding signal (z-score) [22]: 1.71
- glycan array binding signal (z-score) [23]: 2.23
